Test results as given in paper PMC2873905.
No constants are given. Whether binding was seen depends on the method and setting. For some of these results: In cells and extracts the contact can be indirect. Some binding calls cover weakened binding; strength is not graded here. Tags and fused reporters may be left off the sequences shown.

B1: mouse whirlin (full-length, 3-907 aa), yeast two-hybrid fusion (protein, UniProt Q80VW5-3 3-907)
chain: AQLDGLSVSSSSTGSLGSAAAAAGGGGGAGLRLLSANVRQLHQALTALLSEPEREQFTHCLNAYHARRNVFDLVRTLRVLLDSPVKRRLLPMLRLVIPRSDQLLFDQYTAEGLYLPATTPYRQPAWAAPDGAGPGEVRLVSLRRAKAHEGLGFSIRGGSEHGVGIYVSLVEPGSLAEKEGLRVGDQILRVNDKSLARVTHAEAVKALKGSKKLVLSVYSAGRIPGGYVTNHIYTWVDPQGRSTSPPSSLPQPHGSTLRQREDDRRSTLHLLQSGDEKKVNLVLGDGRSLGLTIRGGAEYGLGIYITGVDPGSEAESSGLKVGDQILEVNGRSFLNILHDEAVKLLKSSRHLILTVKDVGRLPHARTTVDQTKWIASSRIGESVANSAGFPGDHTEEGTSKPGFYKGPAGSQVTLSSLGNQTRALLDDQARHLLTEQERATMMYYLAQYRGGTISVEAMVMALFELLNTHAKFSLLSEVRSIISPQDLDRFDHLVLRREIESMKARQPPGPGVGDTYSMVSYSDTGSSTGSHGTSTTVSSARNTLDLEGTGETTQGSTNALPDVSVDDVKSPSEDLPGIKPPPPPPPLAQGHDRLLGQPRKPGREDPAPLSSAAHSGIVFSAPRNRSPPPGTAPTPGPSSAQDSPSSPIYASISHANPSSRKPLDTHLALVNQHPIGPFPRVQSPPHLKSPPAETPGAGACLPPPSPSEHPDAVGANQHFVLVEVHRPDSEPDVNEVRALPQTRTASTLSQLSDSGQTLSEDSGVDAGETEASTSGRGRQTASAKNKNGKEQPRTERTAEGANKPPGLLEPTSTLVRVRKSAATLGIAIEGGANTRQPLPRIVTIQRGGSAHNCGQLKVGHVILEVNGQTLRGKEHKEAARIIAEAFKTKERDYIDFLVTEFNVML
B2: mouse whirlin N-terminus (3-472 aa), yeast two-hybrid fusion (domain or fragment, UniProt Q80VW5-3 3-472)
chain: AQLDGLSVSSSSTGSLGSAAAAAGGGGGAGLRLLSANVRQLHQALTALLSEPEREQFTHCLNAYHARRNVFDLVRTLRVLLDSPVKRRLLPMLRLVIPRSDQLLFDQYTAEGLYLPATTPYRQPAWAAPDGAGPGEVRLVSLRRAKAHEGLGFSIRGGSEHGVGIYVSLVEPGSLAEKEGLRVGDQILRVNDKSLARVTHAEAVKALKGSKKLVLSVYSAGRIPGGYVTNHIYTWVDPQGRSTSPPSSLPQPHGSTLRQREDDRRSTLHLLQSGDEKKVNLVLGDGRSLGLTIRGGAEYGLGIYITGVDPGSEAESSGLKVGDQILEVNGRSFLNILHDEAVKLLKSSRHLILTVKDVGRLPHARTTVDQTKWIASSRIGESVANSAGFPGDHTEEGTSKPGFYKGPAGSQVTLSSLGNQTRALLDDQARHLLTEQERATMMYYLAQYRGGTISVEAMVMALFELLNTHA
B3: endogenous whirlin from mouse retinal lysate (protein, UniProt Q80VW5-3 1-907)
chain: MNAQLDGLSVSSSSTGSLGSAAAAAGGGGGAGLRLLSANVRQLHQALTALLSEPEREQFTHCLNAYHARRNVFDLVRTLRVLLDSPVKRRLLPMLRLVIPRSDQLLFDQYTAEGLYLPATTPYRQPAWAAPDGAGPGEVRLVSLRRAKAHEGLGFSIRGGSEHGVGIYVSLVEPGSLAEKEGLRVGDQILRVNDKSLARVTHAEAVKALKGSKKLVLSVYSAGRIPGGYVTNHIYTWVDPQGRSTSPPSSLPQPHGSTLRQREDDRRSTLHLLQSGDEKKVNLVLGDGRSLGLTIRGGAEYGLGIYITGVDPGSEAESSGLKVGDQILEVNGRSFLNILHDEAVKLLKSSRHLILTVKDVGRLPHARTTVDQTKWIASSRIGESVANSAGFPGDHTEEGTSKPGFYKGPAGSQVTLSSLGNQTRALLDDQARHLLTEQERATMMYYLAQYRGGTISVEAMVMALFELLNTHAKFSLLSEVRSIISPQDLDRFDHLVLRREIESMKARQPPGPGVGDTYSMVSYSDTGSSTGSHGTSTTVSSARNTLDLEGTGETTQGSTNALPDVSVDDVKSPSEDLPGIKPPPPPPPLAQGHDRLLGQPRKPGREDPAPLSSAAHSGIVFSAPRNRSPPPGTAPTPGPSSAQDSPSSPIYASISHANPSSRKPLDTHLALVNQHPIGPFPRVQSPPHLKSPPAETPGAGACLPPPSPSEHPDAVGANQHFVLVEVHRPDSEPDVNEVRALPQTRTASTLSQLSDSGQTLSEDSGVDAGETEASTSGRGRQTASAKNKNGKEQPRTERTAEGANKPPGLLEPTSTLVRVRKSAATLGIAIEGGANTRQPLPRIVTIQRGGSAHNCGQLKVGHVILEVNGQTLRGKEHKEAARIIAEAFKTKERDYIDFLVTEFNVML

Key:
[1] = target: T1, mouse usherin C-terminal fragment (5053-5193 aa), yeast two-hybrid fusion (mouse) (UniProt Q2QI47); test: two-hybrid; co-transformation of pGBKT7 and pGADT7 constructs in yeast; growth on SD-4 (-Leu, -Trp, -Ade, -His) plates means interaction; done in two orientations
T1 sequence: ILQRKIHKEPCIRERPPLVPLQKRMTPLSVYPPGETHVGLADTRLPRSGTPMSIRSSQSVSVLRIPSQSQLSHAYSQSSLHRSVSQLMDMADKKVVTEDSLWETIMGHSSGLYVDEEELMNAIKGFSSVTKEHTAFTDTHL

[2] = target: T2, GST-fused mutant C-terminal mouse usherin without PDZ-binding domain (5053-5186 aa) (mouse) (UniProt Q2QI47); test: pull-down; GST-fused usherin fragments expressed in E. coli, incubated with mouse retinal lysate and glutathione sepharose beads for 2 hours at 4°C; washed three times with lysis buffer (50 mM Tris-HCl pH8.0, 150 mM NaCl, 0.5% TritonX-100, 5 mM EDTA, 1 mM DTT); whirlin detected by blot
T2 sequence: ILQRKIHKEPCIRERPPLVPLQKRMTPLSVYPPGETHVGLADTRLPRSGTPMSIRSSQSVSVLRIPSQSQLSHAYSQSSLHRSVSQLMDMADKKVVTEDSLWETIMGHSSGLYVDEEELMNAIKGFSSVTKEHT

[3] = target: T3, GST-fused intact C-terminal mouse usherin (5053-5193 aa) (mouse) (UniProt Q2QI47); test: as above
T3 sequence: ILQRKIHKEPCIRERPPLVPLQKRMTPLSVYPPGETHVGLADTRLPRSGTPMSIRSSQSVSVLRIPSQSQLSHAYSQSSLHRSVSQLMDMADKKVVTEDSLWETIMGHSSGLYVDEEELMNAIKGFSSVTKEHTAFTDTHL

Binder | binding [1] | binding [2] | binding [3]
B1 | binds |  | 
B2 | binds |  | 
B3 |  | no binding | binds
